Broadly, the AC50 is the midpoint of the concentration-response curve, whichever way the signal moves.

The list shows a part of the results. The main result of the screen is listed elsewhere. These columns were measured beside it and carry no call. Compounds called inactive in the main read-out are mostly missing here. Words in brackets tell the shape of the fitted curve; partial curves, single points and poor fits give uncertain potencies.

The nature of this experiment: qHTS Assay for Lipid Storage Modulators in Drosophila S3 Cells.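 As to cell number change: cells counted by Cell Tracker Red CMTPX staining in the red channel.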 As to conditions: BODIPY lipid droplet fluorescence, 18-24 h; for cell number change: measured here: cell count max response, cells fed with added oleic acid. In outline:
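Drosophila S3 cells got compounds at several concentrations plus oleic acid (400 uM solution). Laser-scanning cytometry with 488 nm excitation read lipid droplets at 500-530 nm and cells at 575-640 nm. Percent activity was relative to 20 uM Triacsin C.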
(qHTS replaces the single test concentration by a dilution series.)

The mark [1] stands for this setting: measured here: cell number channel AC50, cells fed with added oleic acid.
[2] abbreviates: measured here: lipid fluorescence (Fed channel) AC50, cells fed with added oleic acid.

As to `COc1ccccc1NS(=O)(=O)c1cc(C(=O)NCc2ccco2)ccc1C`, the cell number change came to 65%. Besides, the AC50 under setting [1] was 18.4 µM [rising, single point]. Moreover, the AC50 under setting [2] was 1.84 µM [rising, partial curve].
Consider `O=C(CN1C(=O)NC2(CCCC2)C1=O)NCCC1=CCCCC1`, for which the cell number change is -37.2%. Further, the concentration at half-maximal activity (AC50) under setting [1] was 29.1 µM [falling, single point]. Also, the AC50 under setting [2] is 29.1 µM [falling, single point].
On to `Cc1cn2nc(N)c3ccccc3c2n1`, for which the cell number change was -26.2%.
On to `O=C(Nc1ccc(-c2ccco2)cc1)C1CCCN(Cc2ccc(CO)o2)C1` (stereo unspecified), for which the cell number change is -15.8%. Besides, under setting [2], the AC50 is 0.116 µM [falling, full curve, poor fit].
Regarding `Cc1csc(SCC(=O)NCc2ccc3c(c2)OCO3)n1`, the cell number change was -5.81%. In addition, the half-maximal activity concentration (AC50) under setting [2] is 0.164 µM [falling, partial curve, poor fit].
Regarding `COC(=O)CSc1nnc(COc2cccc3ccccc23)o1`, the cell number change is -1.35%.
For the compound `O=C1CSC(c2cn(-c3ccccc3)nc2-c2ccccc2)N1Cc1ccco1` (stereo unspecified), the cell number change is -63.2%. Moreover, the half-maximal activity concentration (AC50) under setting [1] was 5.8 µM [falling, full curve].
With `CCOC(=O)C1CCN(C(=O)c2ccccc2CCc2ccccc2)CC1`, the cell number change is -11%. Moreover, the AC50 under setting [2] is 29.1 µM [falling, single point].
As for `COc1ccc(C(C)=O)cc1COC(=O)CSCC(=O)Nc1ccc(C)cc1`, the cell number change was -7.64%. Besides, under setting [2], the concentration at half-maximal activity (AC50) is 0.259 µM [falling, full curve, poor fit].
Regarding `CCn1c2ccccc2c2cc(NC(=O)c3cccc(OC)c3OC)ccc21`, the cell number change is -11.8%. In addition, the half-maximal activity concentration (AC50) under setting [2] is 11.6 µM [falling, single point].
For `COc1cc(OC)cc(C(=O)Nc2ccc(S(=O)(=O)Nc3cc(C)on3)cc2)c1`, the cell number change is -2.46%. For the same compound, under setting [2], the AC50 was 1.16 µM [falling, full curve, poor fit].
With `O=C(Cc1ccccc1)Nc1cccnc1`, the cell number change was found to be 16.6%. For the same compound, under setting [2], the AC50 is 0.231 µM [rising, full curve].
With `C#CCn1c(=NC(=O)c2ccc(S(=O)(=O)N3CCCc4ccccc43)cc2)sc2cc(S(N)(=O)=O)ccc21`, the cell number change came to 24.9%.
For the compound `COc1cc(C2NC(=O)NC(C)=C2C(=O)OC2CCCCC2)cc(Br)c1O` (stereo unspecified), the cell number change came to 29.1%. Also, the AC50 under setting [2] was 6.51 µM [rising, single point].
On to `CCCn1cnc2c(c1=O)c1nc3ccccc3nc1n2Cc1ccccc1OC`, for which the cell number change worked out at 136%. Further, the AC50 under setting [2] was 1.46 µM [rising, partial curve].
Take `CCOc1ccc(C(=O)NCc2ccccc2)cc1Br`: the cell number change is 8.12%.
As to `Cc1cccc(OCC(O)Cn2c(NCCCOC(C)C)nc3c2c(=O)[nH]c(=O)n3C)c1` (stereo unspecified), the cell number change was 7.62%. The AC50 under setting [2] is 29.1 µM [rising, single point].
Regarding `COc1ccccc1C(=O)OCC(=O)Nc1ccc(OC(F)F)cc1`, the cell number change came out at 30.6%. Also, under setting [1], the AC50 is 7.31 µM [rising, partial curve, poor fit]. Also, the AC50 under setting [2] is 1.16 µM [rising, full curve].
Consider `Cc1ccc(-c2cc(C(F)F)n3ncc(C(=O)NCc4ccco4)c3n2)cc1`, for which, under setting [1], the AC50 was 2.31 µM [rising, partial curve].
As to `CC(C)(C)[C@@H]1CCC(=O)N(CC[C@H](N=[N+]=[N-])c2ccccc2)CC1`, the cell number change was -13.2%. In addition, the AC50 under setting [2] is 23.1 µM [falling, single point].
On to `Nc1nc(Cl)c(C=O)c(N2CCCCC2)n1`, for which the cell number change is -19.3%. Besides, the AC50 under setting [2] is 0.092 µM [falling, full curve, poor fit].
With `Cc1ccc(CN(C)C(=O)c2c(C)nn(-c3ccccc3)c2C)cc1`, the cell number change came out at 50.4%. For the same compound, the AC50 under setting [1] was 5.17 µM [rising, partial curve, poor fit]. Under setting [2], the AC50 is 6.51 µM [rising, single point].
Consider `C/C(=N\NC(=O)c1cccs1)C(C)(C)C`, for which the cell number change was determined as 63.6%. The AC50 under setting [2] was 29.1 µM [rising, partial curve].
Consider `COc1cccc(-c2nnc(SCC(=O)OC(C)C)n2N)c1`, for which the cell number change was -3.65%.
The same measure, in the same setting: the result for `O=C1CCC(C(=O)OCC(=O)N2N=C3/C(=C/c4ccccc4)CCCC3C2c2ccccc2)N1` (stereo unspecified) reads 9.16%.
As for `CCc1nn(C(C)C(=O)NC(C)CCc2ccco2)c(=O)c2cc3occc3n12` (stereo unspecified), the cell number change was -5.32%. In addition, the AC50 under setting [2] is 9.2 µM [falling, partial curve, poor fit].
As for `COc1ccc(-c2nn(-c3ccccc3)cc2/C=N/Nc2ccccn2)cc1OC`, the cell number change worked out at 0.344%. Moreover, the AC50 under setting [1] was 3.26 µM [rising, single point].
As to `COc1ccc(NC(=S)N2C3CCC2CC(NC(=O)NC24CC5CC(CC(C5)C2)C4)C3)c(OC)c1` (stereo unspecified), the cell number change was determined as 45.9%. The AC50 under setting [1] was 13 µM [rising, single point]. Moreover, the AC50 under setting [2] is 14.6 µM [rising, partial curve].
On to `Nc1nc(-c2ccccc2)c(N=Nc2ccccc2Cl)s1`, for which the cell number change was -46.7%. Further, the AC50 under setting [1] is 5.17 µM [falling, full curve]. Moreover, the AC50 under setting [2] was 7.31 µM [falling, partial curve].
Consider `CCc1cccc2c(SCC(=O)NCC3CCCO3)nc(-c3ccc(F)cc3)nc12` (stereo unspecified), for which the AC50 under setting [2] is 0.13 µM [rising, full curve, poor fit].
Take `CCc1[nH]nc(C(=O)N2CCCC(C(=O)c3cccc(C(F)(F)F)c3)C2)c1C` (stereo unspecified): the cell number change was -24.2%. Under setting [2], the concentration at half-maximal activity (AC50) is 29.1 µM [falling, single point].
Turning to `O=C(C1CCCCC1)N1CCCc2ccccc21`, the cell number change amounted to 19.1%. Besides, the AC50 under setting [2] was 29.1 µM [falling, single point].
With `CCN(CC)c1ccc(/C=C(/C#N)C(=O)NCc2ccccc2)o1`, the AC50 under setting [2] is 16.4 µM [falling, partial curve].
As to `COc1ccc(C)cc1NC(=O)c1ccc(CN2CCc3ccccc3C2)cc1`, the cell number change is 20.7%. Besides, under setting [2], the AC50 was 29.1 µM [rising, single point].
As to `CCCNC(=O)COC(=O)c1ccc(Cl)c(S(=O)(=O)N2CCCC2)c1`, the cell number change was 12.4%. The half-maximal activity concentration (AC50) under setting [2] is 0.651 µM [rising, full curve, poor fit].
As for `COc1ccccc1C(=O)NC(=O)CSc1nc2nc(C)cc(C)n2n1`, the cell number change was determined as 8.58%. Moreover, the AC50 under setting [1] is 6.51 µM [falling, single point]. For the same compound, the AC50 under setting [2] is 6.51 µM [falling, single point].
Take `Cc1ccc(S(=O)(=O)N2CCOCC2)cc1NC(=O)CN1CCN(C)CC1`: the cell number change is -4.69%.
On the same count and under the same terms, the result for `O=C1C(Cc2ccccc2)SC(=Nc2ccccc2)N1c1ccccc1` (stereo unspecified) reads -9.2%.
For `O=C(CCCSc1nc2ccccc2[nH]1)Nc1nnc(-c2ccccc2)o1`, the cell number change was -25.6%. Under setting [2], the AC50 was 23.1 µM [falling, single point].
Regarding `CCN1CCN(CC(=O)N2N=C(c3cccs3)CC2c2ccc(OC)c(OC)c2)C(=O)C1=O` (stereo unspecified), the cell number change was 14.8%.
For `COC(=O)CCCCCc1ccc(C(C)=O)s1`, the cell number change was found to be 18.6%. Also, the AC50 under setting [1] is 0.116 µM [falling, full curve, poor fit].
As to `Cc1ccccc1-n1nnnc1-c1ccccc1`, the cell number change is -4.37%. For the same compound, under setting [2], the AC50 is 0.058 µM [rising, full curve].
Consider `Cc1cccc(NC(=O)CNC(=O)c2cn(Cc3ccccc3)nc2-c2cccnc2)c1C`, for which the cell number change is 1.47%. In addition, under setting [2], the AC50 is 14.6 µM [rising, partial curve].
Take `O=C(c1ccc(Oc2ccc(C(F)(F)F)cn2)cc1)N1CCN(c2ccccc2)CC1`: the AC50 under setting [2] was 23.1 µM [rising, single point].
As for `CCOC(=O)c1ccccc1NC(=O)COC(=O)C1CC(=O)N(CCc2ccccc2)C1` (stereo unspecified), the cell number change was found to be 18.5%.
`O=C(OCc1nnc(-c2ccc([N+](=O)[O-])cc2)o1)c1ccc(F)c(S(=O)(=O)N2CCOCC2)c1`: the cell number change is -2.01%.
As for `COc1cccc(CN=C2Nc3ccccc3CS2)c1`, the cell number change worked out at 22.3%. The AC50 under setting [1] is 0.13 µM [rising, full curve, poor fit].
For the compound `Cc1cc(C)n2nc(SCc3nnc(SCc4ccccc4C)s3)nc2n1`, the AC50 is, setting by setting: under setting [1], 3.26 µM [rising, single point]; under setting [2], 4.11 µM [rising, partial curve].
`COCCCNC(=S)N1CCCN(c2nc3cc(C)c(C)cc3cc2C#N)CC1`: the cell number change is 1.57%. For the same compound, the AC50 under setting [2] was 29.1 µM [falling, single point].
For `O=C(COc1ccccc1Cl)N1CCNC1=O`, the cell number change worked out at 1.5%.
For `Cc1ccc(NC(=O)C2CCCN2C(=O)c2cccs2)cc1C` (stereo unspecified), the cell number change was determined as 38.3%. In addition, the AC50 under setting [1] is 9.2 µM [rising, partial curve, poor fit]. Besides, under setting [2], the AC50 is 1.46 µM [falling, full curve, poor fit].
In the case of `Cc1c(C(=O)Nc2ccc(Cc3ccncc3)cc2)cccc1[N+](=O)[O-]`, the cell number change is -9.11%.
Take `COC(=O)CNC(=O)C(NC(=O)c1ccc(Cl)cc1)C(C)C` (stereo unspecified): the AC50 under setting [2] is 29.1 µM [falling, partial curve].
Turning to `O=C(Nc1ccc(Oc2ccc(Cl)cc2)c(Cl)c1)c1cc(I)cc(I)c1O`, the cell number change was -4.24%.
As for `CC(=O)Nc1ccc(NC(=O)c2sc3nc4c(c(-c5ccc(C)cc5)c3c2N)CCC4)cc1`, the cell number change is -45.7%. The AC50 under setting [1] is 23.1 µM [falling, single point]. Also, under setting [2], the AC50 is 23.1 µM [falling, single point].
For `Fc1ccc2nc(N3CCCCC3)sc2c1`, the cell number change is 45.1%. Under setting [1], the AC50 was 0.731 µM [rising, full curve, poor fit]. Further, the AC50 under setting [2] was 0.116 µM [rising, full curve, poor fit].
As to `COc1cccc(CNC(=O)N[C@@H](CC(C)C)C(=O)O)c1`, the cell number change is 17.8%. The AC50 under setting [2] was 20.6 µM [falling, single point].
As for `NC(=O)c1ccc(-n2nnnc2SCC(=O)Nc2ccccc2)cc1`, the cell number change was 4.99%.
In the case of `Cc1cc(N2C(=O)C(O)=C(C(=O)c3ccco3)C2c2cccc(O)c2)no1` (stereo unspecified), the cell number change was 11.9%.
As to `CCOc1ccc2c(c1)c(C(C)=O)c(C)n2-c1ccccc1`, the cell number change was 41.8%. Also, under setting [1], the AC50 was 1.84 µM [rising, full curve].
Consider `COc1ccc(NC(=O)Cc2cccc3ccccc23)cc1`, for which the cell number change was -8.29%. Besides, the AC50 under setting [2] is 29.1 µM [rising, single point].
Regarding `CCc1n[nH]c(=S)n1/N=C/c1c[nH]c2ccc(Br)cc12`, the cell number change is 20.4%.
For the compound `COc1ccc(-n2ncc3c2CC(C)(C)CC3NC(=O)c2cnc(C)cn2)cc1` (stereo unspecified), the cell number change was -12.7%. Under setting [2], the AC50 is 0.731 µM [falling, full curve, poor fit].
On to `COc1cccc(OCc2cc(/C=N/Nc3ccc(C(=O)O)cc3)ccc2OC)c1`, for which the cell number change is -6.67%. For the same compound, the AC50 under setting [1] was 0.651 µM [falling, single point].

The values are drawn from PubChem BioAssay AID2685 (National Center for Advancing Translational Sciences (NCATS), 2010).
